PubChem BioAssay AID652243 – Drosophila RNAi Screening Center | 2013
The deposit covers about 24,000 reagents; this is a random part of those with a known target gene and a result. Of all reagents, 246 (1%) got an active call. 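Plates not normalised; calls are printed but the firefly/Renilla ratio behind them is not deposited; fold cut for lowering reported inconsistently.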 Raw values vary from plate to plate and are shown uncorrected. A number with no mark means an inactive call. The numbers tell different reagents against one gene apart. Names joined by + are all predicted targets of the reagent. Not stated in the record: the amount of reagent.

Purpose: 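Fly regulators of androgen-dependent reporter output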 (primary screen)
Cells: Drosophila S2R+ cells
Reagent: long dsRNA against Drosophila genes
Timing: 72 h (48 h, then 24 h hormone)
Conditions: synthetic androgen R1881 at 10 nM for 24 h
Measured: 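Firefly light from an androgen-responsive reporter and Renilla control light per well, raw and unnormalised, for each of two replicates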
Reading the numbers: firefly reporter light: higher = more light from androgen-responsive reporter; Renilla control light: higher = more constitutive control signal (cell number, transfection)
Call rule: 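Hit when the log firefly-to-Renilla ratio dropped or increased by a fixed fold versus the mean of GFP or LacZ controls across duplicate plates; lowering cut given as 1.5 and as 3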
Meaning of the calls: active = hit: reporter lowered or raised; inactive = no hit

| target | dsRNA no. | firefly reporter light, replicate 1 | firefly reporter light, replicate 2 | Renilla control light, replicate 1 | Renilla control light, replicate 2 |
| --- | --- | --- | --- | --- | --- |
| CG14186 | 1 | 40821 | 62598 | 2.73e5 | 2.81e5 |
| CG14186 | 2 | 5.65e5 | 6.00e5 | 1.24e6 | 1.29e6 |
| CG42613 | 1 | 28559 | 41399 | 1.83e5 | 1.67e5 |
| CG42613 | 2 | 3.11e5 | 2.34e5 | 3.46e6 | 3.22e6 |
| CG42613 | 3 | 85437 | 68667 | 6.54e5 | 6.05e5 |
| CG42613 | 4 | 8.04e5 | 7.36e5 | 1.37e6 | 1.03e6 |
| CG42613 | 5 | 6.26e5 | 1.03e6 | 4.88e5 | 9.72e5 |
| CG42613 | 6 | 4.26e5 | 3.30e5 | 7.18e5 | 5.62e5 |
| CG12715 | 1 | 4.26e5 | 3.98e5 | 3.33e6 | 3.59e6 |
| CG13877 + pyx | 1 | 1.62e5 | 1.29e5 | 1.52e6 | 1.54e6 |
| CG8004 | 1 | 12514 | 18610 | 1.54e5 | 1.89e5 |
| CG8004 | 2 | 3.15e5 | 4.72e5 | 6.95e5 | 8.24e5 |
| CG4681 | 1 | 2.43e5 | 1.81e5 | 1.40e6 | 1.08e6 |
| CG4681 | 2 | 3.26e5 | 2.97e5 | 7.00e5 | 6.76e5 |
| CG13465 | 1 | 2.36e5 | 1.91e5 | 1.67e6 | 2.11e6 |
| CG6287 | 1 | 9.81e5 | 8.70e5 | 1.91e6 | 2.35e6 |
| CG6287 | 2 | 6.08e5 | 4.68e5 | 8.32e5 | 6.92e5 |
| CG14346 | 1 | 1.29e5 | 1.66e5 | 8.53e5 | 1.04e6 |
| CG14346 | 2 | 2.09e5 | 1.98e5 | 3.58e5 | 5.02e5 |
| CG15155 | 1 | 2.24e5 | 4.62e5 | 1.62e6 | 2.47e6 |
| Hr38 | 1 | 7.52e5 | 7.64e5 | 8.30e5 | 1.01e6 |
| Hr38 | 2 | 5.18e5 | 5.59e5 | 1.22e6 | 8.94e5 |
| CG33181 | 1 | 2.13e5 | 3.10e5 | 1.91e6 | 2.68e6 |
| CG33181 | 2 | 7.22e5 | 5.79e5 | 2.76e6 | 1.66e6 |
| CG33181 | 3 | 3.82e5 | 6.01e5 | 1.54e6 | 1.54e6 |
| CG18586 | 1 | 1.29e5 | 75292 | 1.10e6 | 1.19e6 |
| endos | 1 | 8.42e5 | 6.84e5 | 1.63e6 | 1.97e6 |
| endos | 2 | 3.07e5 | 3.57e5 | 1.01e6 | 1.01e6 |
| CG11279 | 1 | 3.16e5 | 3.26e5 | 2.78e6 | 2.46e6 |
| Acam + CG17770 | 1 | 1.80e5 | 1.97e5 | 1.79e6 | 2.04e6 |
| Acam + CG17770 | 2 | 1.60e5 | 1.67e5 | 2.57e6 | 2.75e6 |
| Acam + CG17770 | 3 | 8.12e5 | 8.95e5 | 6.37e5 | 7.36e5 |
| Acam + CG17770 | 4 | 4.64e5 | 6.25e5 | 6.65e5 | 6.65e5 |
| Acam + CG17770 | 5 | 4.81e5 | 4.37e5 | 1.21e6 | 1.15e6 |
| dany | 1 | 2.94e5 | 4.44e5 | 1.73e6 | 1.67e6 |
| CG30010 | 1 | 1.80e5 | 1.18e5 | 2.44e5 | 2.61e5 |
| Pex3 | 1 | 7.83e5 | 5.64e5 | 8.68e5 | 6.67e5 |
| ClC-b | 1 | 1.51e5 | 1.11e5 | 1.06e6 | 1.16e6 |
| pHCl-2 | 1 | 1.85e5 | 1.46e5 | 2.58e6 | 2.66e6 |
| CG6610 | 1 | 1.86e5 | 1.90e5 | 2.29e6 | 2.16e6 |
| PIG-K | 1 | 2.30e5 | 2.20e5 | 3.20e6 | 2.16e6 |
| Ufm1 | 1 | 7.70e5 | 7.35e5 | 1.93e6 | 2.38e6 |
| CG5882 | 1 | 83647 | 1.50e5 | 9.39e5 | 1.90e6 |

Continued (8 carried over from the part before).
| target | dsRNA no. | firefly reporter light, replicate 1 | firefly reporter light, replicate 2 | Renilla control light, replicate 1 | Renilla control light, replicate 2 |
| --- | --- | --- | --- | --- | --- |
| CG30010 | 1 | 1.80e5 | 1.18e5 | 2.44e5 | 2.61e5 |
| Pex3 | 1 | 7.83e5 | 5.64e5 | 8.68e5 | 6.67e5 |
| ClC-b | 1 | 1.51e5 | 1.11e5 | 1.06e6 | 1.16e6 |
| pHCl-2 | 1 | 1.85e5 | 1.46e5 | 2.58e6 | 2.66e6 |
| CG6610 | 1 | 1.86e5 | 1.90e5 | 2.29e6 | 2.16e6 |
| PIG-K | 1 | 2.30e5 | 2.20e5 | 3.20e6 | 2.16e6 |
| Ufm1 | 1 | 7.70e5 | 7.35e5 | 1.93e6 | 2.38e6 |
| CG5882 | 1 | 83647 | 1.50e5 | 9.39e5 | 1.90e6 |
| tplus3a + tplus3b | 1 | 1.40e5 | 1.93e5 | 5.65e5 | 6.82e5 |
| CG6927 | 1 | 93138 | 73635 | 5.79e5 | 5.81e5 |
| Srrm234 | 1 | 1.31e5 | 1.80e5 | 1.75e5 | 2.60e5 |
| Srrm234 | 2 | 9.36e5 | 5.84e5 | 1.45e6 | 1.48e6 |
| CG42634 + CG42635 | 1 | 1.98e5 | 1.72e5 | 1.72e6 | 2.14e6 |
| CG7432 | 1 | 3.34e5 | 3.13e5 | 3.27e6 | 3.28e6 |
| CG43326 + CG43325 | 1 | 2.90e5 | 2.64e5 | 2.22e6 | 1.54e6 |
| CG3702 | 1 | 7.08e5 | 7.82e5 | 1.47e6 | 1.43e6 |
| TAF1B | 1 | 50469 | 1.02e5 | 5.16e5 | 7.83e5 |
| Tsp | 1 | 9.57e5 | 1.41e6 | 2.31e6 | 2.52e6 |
| Tsp | 2 | 1.90e5 | 2.14e5 | 2.01e6 | 2.20e6 |
| hmw | 1 | 1.03e5 | 1.08e5 | 9.19e5 | 1.23e6 |
| CG2924 | 1 | 1.38e5 | 75479 | 1.24e6 | 8.08e5 |
| CG2924 | 2 | 1.96e5 (active) | 3.80e5 | 8.96e5 | 1.36e6 |
| Atg9 | 1 | 8.65e5 | 6.05e5 | 1.30e6 | 7.94e5 |
| Br140 | 1 | 5.37e5 | 5.25e5 | 9.18e5 | 9.83e5 |
| CG7271 + term | 1 | 8.94e5 | 9.14e5 | 1.63e6 | 1.63e6 |
| CG34231 | 1 | 1.38e6 | 7.16e5 | 2.07e6 | 1.57e6 |
| CG17994 | 1 | 4.17e5 | 4.80e5 | 3.34e6 | 3.09e6 |
| CG3483 | 1 | 5.60e5 | 5.31e5 | 1.16e6 | 9.82e5 |
| CG33648 | 1 | 1.26e6 | 1.13e6 | 1.87e6 | 1.87e6 |
| ovm + CG31975 | 1 | 8.91e5 | 1.15e6 | 1.77e6 | 1.59e6 |
| CR31054 + CG4849 | 1 | 4.15e5 | 3.14e5 | 1.58e6 | 1.44e6 |
| CG13380 + CG4174 | 1 | 76871 | 57259 | 8.53e5 | 6.22e5 |
| CG13380 + CG4174 | 2 | 2.44e5 | 1.40e5 | 2.04e6 | 2.19e6 |
| deltaTry + CG30031 + CG30025 + 1 more | 1 | 2.39e5 | 2.45e5 | 4.79e5 | 6.98e5 |
| TwdlC | 1 | 1.20e5 | 1.69e5 | 2.01e6 | 2.14e6 |
| TwdlC | 2 | 1.62e6 | 1.20e6 | 1.34e6 | 8.62e5 |
| CG13218 | 1 | 2.42e5 | 1.89e5 | 1.79e6 | 1.66e6 |
| CG13218 | 2 | 3.30e5 | 1.67e5 | 1.10e6 | 7.15e5 |
| CG4860 | 1 | 4.66e5 | 4.44e5 | 3.86e6 | 3.58e6 |
| CG4860 | 2 | 5.64e5 | 5.11e5 | 6.37e5 | 7.48e5 |
